At least one compound was matched to its structure with a doubt left. Some entries repeat one wording, which the source may state once for all of them.
Tests used:
human PAD1 = molecular target: T1, human PAD1 (Homo sapiens, UniProt Q9ULC6); test: Inhibition of PAD1 enzyme activity (BAEE substrate, colorimetric, 530 nm); type: biochemical
T1 sequence (Q9ULC6 1-663): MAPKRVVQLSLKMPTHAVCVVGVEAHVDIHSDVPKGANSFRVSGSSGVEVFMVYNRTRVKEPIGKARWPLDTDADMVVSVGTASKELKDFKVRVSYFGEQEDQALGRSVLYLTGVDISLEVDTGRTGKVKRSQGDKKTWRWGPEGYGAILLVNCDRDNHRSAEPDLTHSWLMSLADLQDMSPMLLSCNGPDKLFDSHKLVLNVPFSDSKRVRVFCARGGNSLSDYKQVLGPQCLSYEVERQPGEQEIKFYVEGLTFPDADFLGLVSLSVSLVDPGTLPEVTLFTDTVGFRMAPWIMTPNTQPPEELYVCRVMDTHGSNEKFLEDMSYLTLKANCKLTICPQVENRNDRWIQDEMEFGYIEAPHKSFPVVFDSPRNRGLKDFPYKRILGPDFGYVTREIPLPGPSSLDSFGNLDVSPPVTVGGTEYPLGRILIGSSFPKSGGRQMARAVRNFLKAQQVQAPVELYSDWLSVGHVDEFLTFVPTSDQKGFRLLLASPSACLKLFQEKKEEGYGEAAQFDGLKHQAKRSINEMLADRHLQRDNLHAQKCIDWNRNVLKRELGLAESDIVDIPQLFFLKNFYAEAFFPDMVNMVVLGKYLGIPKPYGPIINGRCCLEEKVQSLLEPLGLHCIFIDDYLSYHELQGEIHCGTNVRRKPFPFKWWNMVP
Protocol: Control reaction contained no inhibitor. Enzyme was added to initiate the reaction. The reaction samples were incubated at 37° C. for 30 min. Color reagent was added and the samples were boiled for 15 min. Samples were cooled on ice, further processed, and the absorbance was measured at 530 nm. Remaining activity was calculated as a percentage of the uninhibited samples.

The chains behind the UniProt entries cited, without tags or fusion partners.
UniProt Q9UM07, whole entry: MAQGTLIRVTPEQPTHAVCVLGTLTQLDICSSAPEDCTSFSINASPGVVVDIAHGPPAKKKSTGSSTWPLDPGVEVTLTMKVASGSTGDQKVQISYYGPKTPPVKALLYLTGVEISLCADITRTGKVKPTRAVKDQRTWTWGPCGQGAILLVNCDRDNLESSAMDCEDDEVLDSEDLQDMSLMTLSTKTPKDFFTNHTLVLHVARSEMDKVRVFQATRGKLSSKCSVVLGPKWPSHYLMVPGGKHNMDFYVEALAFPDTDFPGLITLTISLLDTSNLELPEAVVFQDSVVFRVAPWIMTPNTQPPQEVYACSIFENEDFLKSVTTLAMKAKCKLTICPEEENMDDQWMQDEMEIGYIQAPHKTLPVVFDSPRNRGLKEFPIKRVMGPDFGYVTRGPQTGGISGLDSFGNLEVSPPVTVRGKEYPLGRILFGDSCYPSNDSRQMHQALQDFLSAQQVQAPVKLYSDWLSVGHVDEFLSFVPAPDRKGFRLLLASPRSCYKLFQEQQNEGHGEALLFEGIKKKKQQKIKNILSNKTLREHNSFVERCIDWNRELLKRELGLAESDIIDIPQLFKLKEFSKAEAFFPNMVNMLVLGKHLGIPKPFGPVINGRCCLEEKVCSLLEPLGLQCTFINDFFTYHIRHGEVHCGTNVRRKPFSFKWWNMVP

human PAD4 = human PAD4 (Homo sapiens, UniProt Q9UM07); test: Inhibition of PAD4 enzyme activity (BAEE substrate, colorimetric, 530 nm); type: biochemical
PAD enzymes = test: Inhibition of PAD enzymes, general statements; type: biochemical, human

CC1(C)NC(=O)N(CCN)C1=O [I(i)]
Inhibition of PAD1, in words (human PAD1): either moderate or weak inhibitors | Inhibition of PAD4, in words (human PAD4): either moderate or weak inhibitors | Inhibition of PAD enzymes, in words (PAD enzymes): did not yield higher potency

CN1CCN(CN2C(=O)NC(C)(C)C2=O)CC1 [I(e)]
Inhibition of PAD1, in words (human PAD1): either moderate or weak inhibitors | Inhibition of PAD4, in words (human PAD4): either moderate or weak inhibitors | Inhibition of PAD enzymes, in words (PAD enzymes): reduced the inhibition

CC1(C)NC(=O)N(CCCNCCN)C1=O [I(l)]
Inhibition of PAD1, in words (human PAD1): either moderate or weak inhibitors | Inhibition of PAD4, in words (human PAD4): either moderate or weak inhibitors | Inhibition of PAD enzymes, in words (PAD enzymes): moderately potent

CC1(C)NC(=O)N(CCNCCN)C1=O [I(j)]
Inhibition of PAD1, in words (human PAD1): either moderate or weak inhibitors | Inhibition of PAD4, in words (human PAD4): either moderate or weak inhibitors | Inhibition of PAD enzymes, in words (PAD enzymes): moderately potent

CC1(C)NC(=O)N(CCCN)C1=O [I(k)]
Inhibition of PAD1, in words (human PAD1): either moderate or weak inhibitors | Inhibition of PAD4, in words (human PAD4): either moderate or weak inhibitors | Inhibition of PAD enzymes, in words (PAD enzymes): did not yield higher potency
